Results published in patent publication US20100055103A1.
Residue numbers refer to the chain shown, from its start. These are yes or no findings as the source states them, for the method shown. Some binding calls cover weakened binding; strength is not graded here. Values belong to the binder of their own block, whether it stands above or below them.

Amino acid sequences for entries named in this document (tags omitted). A change or cut given only in a name is not applied to a line headed by its entry.
UniProt Q16552: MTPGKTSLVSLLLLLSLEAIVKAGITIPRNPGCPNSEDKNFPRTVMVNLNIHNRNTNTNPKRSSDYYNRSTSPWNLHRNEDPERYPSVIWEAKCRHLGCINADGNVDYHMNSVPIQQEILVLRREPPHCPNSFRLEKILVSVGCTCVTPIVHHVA

What was measured:
[1] = target: T1, Human IL-17F (R&D Systems, cat #1335-IL-025/CF) (human) (UniProt Q96PD4); experiment: phage spot competition ELISA screening / BIAcore (FIG. 14)
T1 sequence: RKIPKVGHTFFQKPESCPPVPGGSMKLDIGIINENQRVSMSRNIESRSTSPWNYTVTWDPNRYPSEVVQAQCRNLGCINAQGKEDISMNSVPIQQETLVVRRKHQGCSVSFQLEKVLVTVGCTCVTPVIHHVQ

[2] = target: Recombinant human IL-17A/F heterodimer (human) (UniProt Q16552); experiment: screening of cross-reactive clones; assay not given
[3] = target: T1, Human IL-17F (R&D Systems, cat #1335-IL-025/CF) (human); experiment: as above
[4] = target: Human IL-17A (R&D Systems, cat #317-IL-050/CF) (human) (UniProt Q16552); experiment: as above

- binding [1]: binds
B1: YW265.01 (antibody, human IgG1, V domains shown)
VL: DIQMTQSPSSLSASVGDRVTITCRASQSISSYLAWYQQKPGKAPKLLIYGASSRASGVPSRFSGSGSGTDFTLTISSLQPEDFATYYCQQYYSSPLTFGQGTKVEIKR
VH: EVQLVESGGGLVQPGGSLRLSCAASGYSFTSPYISWVRQAPGKGLEWVASIFYYSGATDYADSVKGRFTISADTSKNTAYLQMNSLRAEDTAVYYCARGGYGYNQWFYSIYQSYFDYWGQ

- binding [2]: binds
- binding [3]: binds
- binding [4]: binds
B2: YW279.1 (antibody, V domains shown)
VL: B1 VL with Y91R, S94Q, L96I
VH: EVQLVESGGGLVQPGGSLRLSCAASGFSFTSYMMSWVRQAPGKGLEWVSTIYPESGATDYADSVKGRFTISADTSKNTAYLQMNSLRAEDTAVYYCAREGYYYSTSIKYYPWFDYWGQ

- binding [4]: binds
B3: YW278.15 (antibody, V domains shown)
VH: EVQLVESGGGLVQPGGSLRLSCAASGFTFTDYDISWVRQAPGKGLEWVASISPSDGYTYYADSVKGRFTISADTSKNTAYLQMNSLRAEDTAVYYCARYLYWSYVMDYWGQGTLVTVSS
VL: DIQMTQSPSSLSASVGDRVTITCRASQDVSTAVAWYQQKPGKAPKLLIYSASFLYSGVPSRFSGSGSGTDFTLTISSLQPEDFATYYCQQSYTTPPTFGQGTKVEIKR
